Assay results: the supplement of paper PMC10849652
The list shows a part of the results.

Amino acid sequences for entries named in this document (tags omitted). A change or cut given only in a name is not applied to a line headed by its entry.
UniProt P07737, whole entry, looked up: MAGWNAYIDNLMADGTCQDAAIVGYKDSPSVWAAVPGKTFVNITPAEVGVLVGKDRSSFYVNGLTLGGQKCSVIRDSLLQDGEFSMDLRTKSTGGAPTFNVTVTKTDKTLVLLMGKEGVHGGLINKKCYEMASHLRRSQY
UniProt Q15366, whole entry, looked up: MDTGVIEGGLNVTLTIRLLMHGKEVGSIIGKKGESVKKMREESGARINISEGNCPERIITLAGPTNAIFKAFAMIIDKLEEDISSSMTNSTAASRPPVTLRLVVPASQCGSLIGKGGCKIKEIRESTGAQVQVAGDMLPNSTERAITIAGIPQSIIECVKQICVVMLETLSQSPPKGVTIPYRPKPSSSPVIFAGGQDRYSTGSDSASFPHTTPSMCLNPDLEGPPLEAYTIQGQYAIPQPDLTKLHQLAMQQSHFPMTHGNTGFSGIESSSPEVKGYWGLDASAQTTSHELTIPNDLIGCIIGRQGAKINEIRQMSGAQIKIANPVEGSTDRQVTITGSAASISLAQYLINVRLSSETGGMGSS
UniProt Q96GD0: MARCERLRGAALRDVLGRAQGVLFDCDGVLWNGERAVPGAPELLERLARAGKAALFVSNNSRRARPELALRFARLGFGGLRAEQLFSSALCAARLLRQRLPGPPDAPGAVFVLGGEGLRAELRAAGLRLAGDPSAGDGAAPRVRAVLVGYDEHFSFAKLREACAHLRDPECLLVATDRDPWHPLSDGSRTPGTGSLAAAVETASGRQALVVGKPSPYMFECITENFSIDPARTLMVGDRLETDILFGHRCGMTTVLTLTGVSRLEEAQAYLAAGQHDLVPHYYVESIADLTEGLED
UniProt P61457: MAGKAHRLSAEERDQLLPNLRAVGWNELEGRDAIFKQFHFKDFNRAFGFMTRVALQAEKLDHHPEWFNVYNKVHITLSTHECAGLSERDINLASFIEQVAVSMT
UniProt Q86SE9: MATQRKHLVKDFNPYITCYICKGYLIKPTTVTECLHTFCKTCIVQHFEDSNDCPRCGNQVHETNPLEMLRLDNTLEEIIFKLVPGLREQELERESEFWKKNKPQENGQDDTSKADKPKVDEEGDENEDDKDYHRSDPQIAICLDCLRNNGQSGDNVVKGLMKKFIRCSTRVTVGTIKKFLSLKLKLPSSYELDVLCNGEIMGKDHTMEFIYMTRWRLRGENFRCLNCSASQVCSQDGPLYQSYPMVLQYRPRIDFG
UniProt Q86TB9: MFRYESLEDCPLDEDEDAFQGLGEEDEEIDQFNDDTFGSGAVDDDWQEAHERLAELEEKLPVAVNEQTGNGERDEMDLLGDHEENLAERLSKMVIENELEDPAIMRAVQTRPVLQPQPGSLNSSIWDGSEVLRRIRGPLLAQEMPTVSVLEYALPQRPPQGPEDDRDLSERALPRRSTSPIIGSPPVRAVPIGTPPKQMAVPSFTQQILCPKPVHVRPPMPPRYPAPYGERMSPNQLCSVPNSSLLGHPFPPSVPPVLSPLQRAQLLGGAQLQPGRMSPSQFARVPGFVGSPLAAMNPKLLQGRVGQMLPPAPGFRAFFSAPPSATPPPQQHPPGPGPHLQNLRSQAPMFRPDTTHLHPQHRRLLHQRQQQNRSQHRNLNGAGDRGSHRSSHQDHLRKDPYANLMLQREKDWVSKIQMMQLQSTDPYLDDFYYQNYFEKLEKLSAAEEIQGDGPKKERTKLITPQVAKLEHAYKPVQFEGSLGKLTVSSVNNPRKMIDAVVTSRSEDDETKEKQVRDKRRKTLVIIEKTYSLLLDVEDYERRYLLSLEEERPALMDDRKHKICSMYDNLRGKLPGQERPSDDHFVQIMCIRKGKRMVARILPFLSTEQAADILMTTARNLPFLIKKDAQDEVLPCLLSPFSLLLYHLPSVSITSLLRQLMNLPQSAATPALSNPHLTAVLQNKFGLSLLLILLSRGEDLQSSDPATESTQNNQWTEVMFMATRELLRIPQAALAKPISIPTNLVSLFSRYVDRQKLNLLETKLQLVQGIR
UniProt Q9BVG4: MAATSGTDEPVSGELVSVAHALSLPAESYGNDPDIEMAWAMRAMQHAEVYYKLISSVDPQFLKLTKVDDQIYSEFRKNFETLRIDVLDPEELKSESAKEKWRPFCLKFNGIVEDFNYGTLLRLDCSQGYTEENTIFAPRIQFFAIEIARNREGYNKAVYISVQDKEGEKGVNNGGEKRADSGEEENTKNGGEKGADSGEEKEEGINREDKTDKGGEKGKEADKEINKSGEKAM
UniProt P0DJ07: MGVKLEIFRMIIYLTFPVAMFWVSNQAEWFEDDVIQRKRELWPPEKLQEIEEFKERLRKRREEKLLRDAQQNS
UniProt H7BZJ3: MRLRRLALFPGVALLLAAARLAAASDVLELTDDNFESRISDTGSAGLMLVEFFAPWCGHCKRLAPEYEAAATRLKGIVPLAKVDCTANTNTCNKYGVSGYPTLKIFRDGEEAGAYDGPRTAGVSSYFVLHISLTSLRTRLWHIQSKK
UniProt Q15118, whole entry, looked up: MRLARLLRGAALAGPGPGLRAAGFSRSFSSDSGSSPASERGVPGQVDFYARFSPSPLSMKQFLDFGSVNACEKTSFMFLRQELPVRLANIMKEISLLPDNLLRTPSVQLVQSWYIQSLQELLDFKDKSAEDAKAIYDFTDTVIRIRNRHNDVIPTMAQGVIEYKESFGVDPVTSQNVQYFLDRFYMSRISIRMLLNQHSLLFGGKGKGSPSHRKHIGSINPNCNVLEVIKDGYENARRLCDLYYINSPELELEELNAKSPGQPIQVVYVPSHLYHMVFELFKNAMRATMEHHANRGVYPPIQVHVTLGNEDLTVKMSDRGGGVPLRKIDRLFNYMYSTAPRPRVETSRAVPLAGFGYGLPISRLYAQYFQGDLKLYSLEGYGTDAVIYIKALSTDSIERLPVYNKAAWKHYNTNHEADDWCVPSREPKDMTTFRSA
UniProt P13667: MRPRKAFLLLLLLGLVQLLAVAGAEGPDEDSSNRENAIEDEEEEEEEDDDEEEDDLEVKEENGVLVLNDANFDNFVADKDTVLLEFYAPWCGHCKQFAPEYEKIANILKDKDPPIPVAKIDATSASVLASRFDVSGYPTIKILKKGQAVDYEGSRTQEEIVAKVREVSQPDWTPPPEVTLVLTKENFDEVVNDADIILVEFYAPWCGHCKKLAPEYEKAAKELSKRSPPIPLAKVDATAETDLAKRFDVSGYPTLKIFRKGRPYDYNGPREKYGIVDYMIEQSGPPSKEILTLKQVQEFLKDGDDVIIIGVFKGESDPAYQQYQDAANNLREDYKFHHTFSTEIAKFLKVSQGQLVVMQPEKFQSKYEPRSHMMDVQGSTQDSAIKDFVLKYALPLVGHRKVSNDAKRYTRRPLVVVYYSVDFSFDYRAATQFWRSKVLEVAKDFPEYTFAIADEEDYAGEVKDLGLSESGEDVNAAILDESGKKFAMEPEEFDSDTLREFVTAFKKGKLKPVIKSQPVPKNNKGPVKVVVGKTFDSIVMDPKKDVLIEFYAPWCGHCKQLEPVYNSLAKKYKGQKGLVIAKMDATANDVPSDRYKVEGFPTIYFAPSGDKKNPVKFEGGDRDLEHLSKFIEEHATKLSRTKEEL
UniProt P50479: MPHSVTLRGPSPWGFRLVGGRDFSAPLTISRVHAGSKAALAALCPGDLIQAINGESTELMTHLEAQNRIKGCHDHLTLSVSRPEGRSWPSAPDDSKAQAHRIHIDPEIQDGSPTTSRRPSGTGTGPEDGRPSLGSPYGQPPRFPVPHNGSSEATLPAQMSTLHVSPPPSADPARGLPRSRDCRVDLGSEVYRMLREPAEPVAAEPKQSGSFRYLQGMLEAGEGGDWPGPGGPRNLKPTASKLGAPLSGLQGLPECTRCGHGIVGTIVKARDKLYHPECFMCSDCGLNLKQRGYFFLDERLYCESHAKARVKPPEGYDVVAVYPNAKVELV
UniProt Q15365, whole entry, looked up: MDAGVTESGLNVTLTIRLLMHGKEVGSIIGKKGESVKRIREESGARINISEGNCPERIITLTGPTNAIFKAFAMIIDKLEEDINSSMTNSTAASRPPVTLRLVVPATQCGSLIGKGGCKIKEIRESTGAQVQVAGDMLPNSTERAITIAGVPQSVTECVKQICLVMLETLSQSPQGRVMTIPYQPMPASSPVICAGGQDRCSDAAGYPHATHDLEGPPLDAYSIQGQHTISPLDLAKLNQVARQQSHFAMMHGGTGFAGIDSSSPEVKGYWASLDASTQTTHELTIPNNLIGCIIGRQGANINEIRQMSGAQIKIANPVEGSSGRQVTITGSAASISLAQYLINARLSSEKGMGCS
UniProt P11177, whole entry, looked up: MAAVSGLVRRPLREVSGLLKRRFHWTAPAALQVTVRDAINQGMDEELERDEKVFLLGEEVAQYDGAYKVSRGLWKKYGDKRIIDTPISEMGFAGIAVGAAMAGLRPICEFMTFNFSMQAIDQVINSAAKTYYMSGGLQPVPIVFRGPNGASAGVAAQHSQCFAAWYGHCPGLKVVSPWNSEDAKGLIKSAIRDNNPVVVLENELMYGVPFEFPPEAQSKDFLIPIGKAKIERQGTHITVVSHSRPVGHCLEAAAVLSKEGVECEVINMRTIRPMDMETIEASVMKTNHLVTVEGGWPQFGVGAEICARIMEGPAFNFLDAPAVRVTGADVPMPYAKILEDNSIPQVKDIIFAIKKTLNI
UniProt Q29RF7: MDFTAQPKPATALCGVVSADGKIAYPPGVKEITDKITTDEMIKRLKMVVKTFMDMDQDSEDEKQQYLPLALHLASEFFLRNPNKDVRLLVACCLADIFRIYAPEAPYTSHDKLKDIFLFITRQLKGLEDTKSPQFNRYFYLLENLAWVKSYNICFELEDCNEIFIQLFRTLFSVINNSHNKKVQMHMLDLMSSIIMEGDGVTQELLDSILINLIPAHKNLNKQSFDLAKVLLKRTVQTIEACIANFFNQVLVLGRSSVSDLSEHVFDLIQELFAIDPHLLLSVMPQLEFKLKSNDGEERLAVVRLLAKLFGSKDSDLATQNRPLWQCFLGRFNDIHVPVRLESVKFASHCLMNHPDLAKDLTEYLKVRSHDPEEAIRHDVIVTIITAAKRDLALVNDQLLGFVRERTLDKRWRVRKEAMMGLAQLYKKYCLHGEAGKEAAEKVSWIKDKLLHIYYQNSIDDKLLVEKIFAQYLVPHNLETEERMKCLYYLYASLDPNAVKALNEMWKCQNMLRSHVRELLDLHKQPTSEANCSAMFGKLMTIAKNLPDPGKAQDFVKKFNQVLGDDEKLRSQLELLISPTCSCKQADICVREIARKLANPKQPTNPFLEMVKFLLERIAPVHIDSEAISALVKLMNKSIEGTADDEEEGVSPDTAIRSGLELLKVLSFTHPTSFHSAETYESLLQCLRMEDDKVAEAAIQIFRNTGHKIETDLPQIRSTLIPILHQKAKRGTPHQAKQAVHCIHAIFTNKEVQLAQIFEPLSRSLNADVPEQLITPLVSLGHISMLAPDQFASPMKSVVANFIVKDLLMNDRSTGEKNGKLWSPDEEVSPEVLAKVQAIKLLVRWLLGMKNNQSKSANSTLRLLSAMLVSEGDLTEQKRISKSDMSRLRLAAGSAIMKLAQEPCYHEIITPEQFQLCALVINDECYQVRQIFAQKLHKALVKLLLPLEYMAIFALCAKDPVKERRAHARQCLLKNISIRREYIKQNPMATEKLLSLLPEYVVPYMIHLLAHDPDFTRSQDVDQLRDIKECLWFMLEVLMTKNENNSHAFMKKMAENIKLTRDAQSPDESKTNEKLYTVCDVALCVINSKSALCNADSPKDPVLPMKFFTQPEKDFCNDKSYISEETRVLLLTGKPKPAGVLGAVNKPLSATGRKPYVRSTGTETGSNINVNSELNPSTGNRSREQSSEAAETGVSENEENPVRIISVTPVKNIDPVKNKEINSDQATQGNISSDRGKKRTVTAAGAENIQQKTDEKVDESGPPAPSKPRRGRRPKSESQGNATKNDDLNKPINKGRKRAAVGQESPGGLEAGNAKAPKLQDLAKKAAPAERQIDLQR
UniProt Q15084: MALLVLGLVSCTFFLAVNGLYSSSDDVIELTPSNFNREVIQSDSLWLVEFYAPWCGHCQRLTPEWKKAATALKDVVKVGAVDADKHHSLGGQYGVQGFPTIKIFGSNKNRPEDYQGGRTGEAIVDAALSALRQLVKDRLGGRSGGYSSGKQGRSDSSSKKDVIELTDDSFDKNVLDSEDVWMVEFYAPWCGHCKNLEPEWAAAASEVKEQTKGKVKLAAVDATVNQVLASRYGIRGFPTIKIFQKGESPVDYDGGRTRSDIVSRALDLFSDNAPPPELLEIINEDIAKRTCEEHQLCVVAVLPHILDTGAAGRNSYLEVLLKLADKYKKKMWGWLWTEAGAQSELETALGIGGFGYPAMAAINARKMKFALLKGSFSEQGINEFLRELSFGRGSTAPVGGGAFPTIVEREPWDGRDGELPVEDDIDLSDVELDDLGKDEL
UniProt Q9UBV8: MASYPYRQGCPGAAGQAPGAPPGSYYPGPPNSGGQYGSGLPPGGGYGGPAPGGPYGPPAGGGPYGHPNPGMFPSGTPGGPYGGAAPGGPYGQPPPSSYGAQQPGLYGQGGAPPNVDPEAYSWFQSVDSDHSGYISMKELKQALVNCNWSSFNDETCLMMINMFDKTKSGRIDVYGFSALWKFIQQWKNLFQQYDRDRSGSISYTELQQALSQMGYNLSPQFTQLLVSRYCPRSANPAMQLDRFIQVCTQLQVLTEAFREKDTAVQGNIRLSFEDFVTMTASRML

The targets below were run with C1=CC2=C(C=CC(=C2)/C=C\3/C(=O)NC(=NCC4=CC=CS4)S3)N=C1 (assay: log2 fold change, soluble protein after heating vs DMSO (PISA); higher = thermal stabilisation; K562 lysate, 10 uM; active = over 0.2 and 3.5 SD of the protein, either way, in both replicates (recomputed)).
In short: (§1)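 K562 pellets were dounce-homogenised in PBS pH 7.4 containing 1 mM MgCl2, and the crude extract, at 1 mg/mL protein, was exposed to 10 μM compound for 30 min. Aliquots were heated for 3 min across 48°C-58°C, pooled, brought to 0.5% NP-40 at 4°C and spun at 21,000xg for 90 min, with the supernatant taken as soluble protein. TMTpro 16plex LC-MS/MS with equalised channel sums quantified that protein. Values are log-two fold changes in thermal stability relative to solvent controls, taken from duplicates.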

log2 fold change, inactive:
PFKL isoform 2 (UniProt P17858) 0.032
PFN1 (UniProt P07737) 0.019
PCK2 (UniProt Q16822) 0.01
PFKFB2 (UniProt O60825) -0.004
PCBP2 isoform 3 (UniProt Q15366) 0.018
PDXP (UniProt Q96GD0) -0.013
PCBD1 (UniProt P61457) -0.075
PDCD4 (UniProt Q53EL6) -0.003
PARP2 (UniProt Q9UGN5) 0.039
PCGF5 (UniProt Q86SE9) 0.257
PATL1 (UniProt Q86TB9) 0.024
PBDC1 (UniProt Q9BVG4) -0.003
PET100 (UniProt P0DJ07) -0.041
PDIA3 (UniProt H7BZJ3) -0.094
PDK1 (UniProt Q15118) -0.012
PECAM1 (UniProt P16284) 0.083
PCBP2 (UniProt H3BRU6) 0.061
PFKP (UniProt Q01813) -0.001
PCNA (UniProt P12004) 0.006
PARP9 (UniProt Q8IXQ6) -0.038
PDIA4 (UniProt P13667) -0.017
PFKFB4 (UniProt Q16877) -0.024
PDLIM4 (UniProt P50479) 0.017
PCBP1 (UniProt Q15365) -0.011
PDHB (UniProt P11177) -0.012
PARS2 (UniProt Q7L3T8) -0.041
PDS5A (UniProt Q29RF7) 0.052
PEX16 isoform 2 (UniProt Q9Y5Y5) 0.048
PARN (UniProt O95453) 0.048
PDCD2 (UniProt Q16342) 0
PDIA6 isoform 2 (UniProt Q15084) -0.012
PARP1 (UniProt P09874) 0.011
PEF1 (UniProt Q9UBV8) -0.001

What follows are targets tested with C1=CC2=NC=CN=C2C=C1/C=C/3\C(=O)NC(=O)S3 in the same assay as above.
In short: as §1

log2 fold change, inactive:
PFKL isoform 2 (UniProt P17858) -0.011
PFN1 (UniProt P07737) -0.007
PCK2 (UniProt Q16822) -0.008
PFKFB2 (UniProt O60825) 0.005
PCBP2 isoform 3 (UniProt Q15366) 0.034
PDXP (UniProt Q96GD0) 0
PCBD1 (UniProt P61457) -0.013
PDCD4 (UniProt Q53EL6) -0.004
PARP2 (UniProt Q9UGN5) -0.037
PCGF5 (UniProt Q86SE9) -0.014
PATL1 (UniProt Q86TB9) -0.057
PBDC1 (UniProt Q9BVG4) -0.006
PET100 (UniProt P0DJ07) -0.056
PDIA3 (UniProt H7BZJ3) -0.032
PDK1 (UniProt Q15118) 0.04
PECAM1 (UniProt P16284) -0.068
PCBP2 (UniProt H3BRU6) -0.057
PFKP (UniProt Q01813) -0.01
PCNA (UniProt P12004) 0.017
PARP9 (UniProt Q8IXQ6) -0.165
PDIA4 (UniProt P13667) -0.008
PFKFB4 (UniProt Q16877) -0.031
PDLIM4 (UniProt P50479) 0
PCBP1 (UniProt Q15365) 0
PDHB (UniProt P11177) -0.002
PARS2 (UniProt Q7L3T8) 0.048
PDS5A (UniProt Q29RF7) 0.032
PEX16 isoform 2 (UniProt Q9Y5Y5) -0.09
PARN (UniProt O95453) -0.013
PDCD2 (UniProt Q16342) -0.034
PDIA6 isoform 2 (UniProt Q15084) -0.008
PARP1 (UniProt P09874) 0.022
PEF1 (UniProt Q9UBV8) -0.039

The targets below were run with C1=CC=C(C=C1)C2=NC(=C(N2)C3=CC=NC=C3)C4=CC(=C(C=C4)Cl)O in the same assay as above.
In short: as §1

log2 fold change, inactive:
PFKL isoform 2 (UniProt P17858) 0
PFN1 (UniProt P07737) -0.006
PCK2 (UniProt Q16822) -0.016
PFKFB2 (UniProt O60825) -0.02
PCBP2 isoform 3 (UniProt Q15366) 0.012
PDXP (UniProt Q96GD0) 0.001
PCBD1 (UniProt P61457) -0.064
PDCD4 (UniProt Q53EL6) -0.026
PARP2 (UniProt Q9UGN5) 0.165
PCGF5 (UniProt Q86SE9) -0.036
PATL1 (UniProt Q86TB9) -0.041
PBDC1 (UniProt Q9BVG4) -0.022
PET100 (UniProt P0DJ07) 0.005
PDIA3 (UniProt H7BZJ3) 0.004
PDK1 (UniProt Q15118) -0.022
PECAM1 (UniProt P16284) 0.016
PCBP2 (UniProt H3BRU6) -0.034
PFKP (UniProt Q01813) 0
PCNA (UniProt P12004) 0.009
PARP9 (UniProt Q8IXQ6) -0.066
PDIA4 (UniProt P13667) 0.006
PFKFB4 (UniProt Q16877) 0.096
PDLIM4 (UniProt P50479) 0.009
PCBP1 (UniProt Q15365) 0.032
PDHB (UniProt P11177) -0.004
PARS2 (UniProt Q7L3T8) 0.003
PDS5A (UniProt Q29RF7) 0.012
PEX16 isoform 2 (UniProt Q9Y5Y5) -0.06
PARN (UniProt O95453) -0.012
PDCD2 (UniProt Q16342) -0.014
PDIA6 isoform 2 (UniProt Q15084) 0.01
PARP1 (UniProt P09874) -0.003
PEF1 (UniProt Q9UBV8) -0.012
